Results are given in words; binding and its absence hold for the method and conditions named. Binding seen in cells or lysates may run through a third protein. These calls come from enrichment with a bait or labelling near it, and not all partners need be listed.
Assays:
[1] = target: HSFA2-YFP expressed from pHSFA2::HSFA2-YFP (A. thaliana) (UniProt O80982); experiment: affinity purification with mass spectrometry; Co-IP/MS of HSFA2-YFP in the hsfa3 mutant background, without HS or 4 h after ACC; Trypsin/Lys-C digest, Q Exactive HF
[2] = target: 3xFLAG-HSFA3 (FORGETTER3/HEAT SHOCK …ON FACTOR A3) expressed from pHSFA3::FLAG-HSFA3 (A. thaliana) (UniProt Q8GYY1); experiment: affinity purification with mass spectrometry; Co-IP/MS of FLAG-HSFA3 in the hsfa2 mutant background, without HS or 4 h after ACC; Trypsin/Lys-C digest, Q Exactive HF
[3] = target: HSFA2-YFP expressed from pHSFA2::HSFA2-YFP (A. thaliana) (UniProt O80982); experiment: affinity purification with mass spectrometry; HSFA2-YFP complexes isolated from seedlings under no-HS conditions, 45 min and 3 h after 1 h HS at 37 °C; trypsin digest, Q Exactive Plus
[4] = target: 3xFLAG-HSFA3 (FORGETTER3/HEAT SHOCK …ON FACTOR A3) expressed from pHSFA3::FLAG-HSFA3 (A. thaliana) (UniProt Q8GYY1); experiment: affinity purification with mass spectrometry; FLAG-HSFA3 precipitated from the complementing pHSFA3::FLAG-HSFA3 line under no-HS conditions, 4 h after HS (1 h 37 °C) or 4 h after ACC; anti-DYKDDDDK beads; trypsin digest, Q Exactive Plus

Amino acid sequences for entries named in this document (tags omitted).
UniProt O80982: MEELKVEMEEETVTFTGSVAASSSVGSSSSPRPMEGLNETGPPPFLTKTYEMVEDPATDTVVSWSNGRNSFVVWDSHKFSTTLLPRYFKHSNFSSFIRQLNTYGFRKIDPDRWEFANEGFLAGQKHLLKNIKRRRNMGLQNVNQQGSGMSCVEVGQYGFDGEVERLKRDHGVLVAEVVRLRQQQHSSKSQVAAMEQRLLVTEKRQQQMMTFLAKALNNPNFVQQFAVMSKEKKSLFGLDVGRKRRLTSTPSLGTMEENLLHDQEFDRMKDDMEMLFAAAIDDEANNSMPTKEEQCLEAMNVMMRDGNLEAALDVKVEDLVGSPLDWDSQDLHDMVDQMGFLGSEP
UniProt P41151: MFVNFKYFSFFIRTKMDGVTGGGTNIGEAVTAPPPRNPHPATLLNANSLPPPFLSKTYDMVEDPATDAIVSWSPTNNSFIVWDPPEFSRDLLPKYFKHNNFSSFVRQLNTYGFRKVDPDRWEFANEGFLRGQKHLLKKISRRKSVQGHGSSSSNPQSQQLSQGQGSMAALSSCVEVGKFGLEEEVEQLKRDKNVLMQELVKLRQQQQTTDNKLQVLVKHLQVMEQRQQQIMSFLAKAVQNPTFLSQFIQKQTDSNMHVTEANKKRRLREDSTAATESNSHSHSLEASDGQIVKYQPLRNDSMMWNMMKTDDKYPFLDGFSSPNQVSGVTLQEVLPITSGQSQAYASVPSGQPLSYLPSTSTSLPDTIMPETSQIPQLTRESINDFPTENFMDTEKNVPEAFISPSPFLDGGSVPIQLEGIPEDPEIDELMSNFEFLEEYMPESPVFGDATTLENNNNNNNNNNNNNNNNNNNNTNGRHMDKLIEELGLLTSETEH
UniProt O81821: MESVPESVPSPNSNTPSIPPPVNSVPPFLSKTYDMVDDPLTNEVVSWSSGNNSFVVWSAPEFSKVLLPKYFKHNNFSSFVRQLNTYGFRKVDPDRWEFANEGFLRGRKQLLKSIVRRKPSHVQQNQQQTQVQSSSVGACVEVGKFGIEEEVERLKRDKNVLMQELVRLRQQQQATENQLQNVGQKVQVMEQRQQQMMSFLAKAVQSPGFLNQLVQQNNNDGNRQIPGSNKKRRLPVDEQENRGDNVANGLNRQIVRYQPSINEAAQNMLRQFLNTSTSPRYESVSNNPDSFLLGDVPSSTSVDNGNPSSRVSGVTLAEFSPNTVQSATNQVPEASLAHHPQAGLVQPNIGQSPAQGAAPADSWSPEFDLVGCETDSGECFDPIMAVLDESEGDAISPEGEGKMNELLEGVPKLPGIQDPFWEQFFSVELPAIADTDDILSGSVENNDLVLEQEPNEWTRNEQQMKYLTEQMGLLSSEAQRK
UniProt Q9LQM7: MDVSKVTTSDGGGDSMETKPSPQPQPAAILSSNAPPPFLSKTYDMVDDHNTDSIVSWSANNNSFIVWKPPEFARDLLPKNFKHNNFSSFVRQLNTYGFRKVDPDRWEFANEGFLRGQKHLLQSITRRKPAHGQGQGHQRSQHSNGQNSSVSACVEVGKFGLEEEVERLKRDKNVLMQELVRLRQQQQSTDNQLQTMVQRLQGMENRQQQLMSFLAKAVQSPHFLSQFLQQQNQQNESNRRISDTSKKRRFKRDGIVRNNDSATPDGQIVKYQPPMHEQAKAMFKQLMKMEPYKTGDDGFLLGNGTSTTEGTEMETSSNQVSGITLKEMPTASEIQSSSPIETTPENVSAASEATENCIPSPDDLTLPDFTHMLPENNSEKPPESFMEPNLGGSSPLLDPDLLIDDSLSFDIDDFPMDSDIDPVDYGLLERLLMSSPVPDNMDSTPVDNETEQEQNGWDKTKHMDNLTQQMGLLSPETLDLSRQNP
UniProt Q9LUH8: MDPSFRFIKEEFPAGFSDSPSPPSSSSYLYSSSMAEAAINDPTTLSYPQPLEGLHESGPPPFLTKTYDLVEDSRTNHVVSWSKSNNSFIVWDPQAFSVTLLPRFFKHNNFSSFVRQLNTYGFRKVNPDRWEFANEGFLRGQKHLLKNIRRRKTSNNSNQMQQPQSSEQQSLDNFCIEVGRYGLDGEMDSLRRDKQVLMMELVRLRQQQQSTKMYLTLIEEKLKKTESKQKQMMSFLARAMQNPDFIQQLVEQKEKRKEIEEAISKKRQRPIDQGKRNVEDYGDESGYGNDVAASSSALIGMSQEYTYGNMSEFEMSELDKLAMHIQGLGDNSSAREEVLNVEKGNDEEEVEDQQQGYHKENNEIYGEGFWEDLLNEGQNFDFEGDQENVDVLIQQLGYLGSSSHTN
UniProt Q9SV12: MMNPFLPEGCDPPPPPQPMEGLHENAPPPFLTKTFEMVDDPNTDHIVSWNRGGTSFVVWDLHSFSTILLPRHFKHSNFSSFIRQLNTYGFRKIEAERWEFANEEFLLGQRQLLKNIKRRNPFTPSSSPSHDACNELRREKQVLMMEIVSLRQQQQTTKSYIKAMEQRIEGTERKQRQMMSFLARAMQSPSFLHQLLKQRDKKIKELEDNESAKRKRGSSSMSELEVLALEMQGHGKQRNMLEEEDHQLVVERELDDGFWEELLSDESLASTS

Question: “HSFA1A (endogenous) (from UniProt P41151 1-495)” was tested. Which binding [1] did it give?
Answer: binds

Question: What about the binding [2] of the same substance?
Answer: binds

Question: What about the binding [3] of the same substance?
Answer: binds

Question: What about the binding [4] of the same substance?
Answer: binds

Question: How did the binding [1] turn out when “HSFA1B (endogenous) (from UniProt O81821 1-481)” was run?
Answer: binds

Question: What about the binding [2] of the same substance?
Answer: binds

Question: And the binding [3]?
Answer: binds

Question: And the binding [4]?
Answer: binds

Question: With “HSFA1D (endogenous) (from UniProt Q9LQM7 1-485)” as the substance, how does the binding [1] read?
Answer: binds

Question: What about the binding [2] of the same substance?
Answer: binds

Question: And the binding [3]?
Answer: binds

Question: What about the binding [4] of the same substance?
Answer: binds

Question: How did the binding [3] turn out when “HSFA3 (endogenous) (from UniProt Q8GYY1 1-412)” was run?
Answer: binds

Question: What does the source list for “HSFA6B (endogenous) (from UniProt Q9LUH8 1-406)”?
Answer: binding [3]: binds; binding [4]: binds

Question: With “HSFA7A (endogenous) (from UniProt Q9SV12 1-272)” as the substance, how does the binding [3] read?
Answer: binds

Question: And the binding [4]?
Answer: binds

— paper PMC8187452
